According to the supplement of paper PMC5662767:
Counter-ions that a name gives are not always drawn. Some of the results follow. Part of the spread comes from offsets between plates or batches.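 Smoothened with circularly permuted GFP in its cytoplasmic tail is carried by a clonal Drosophila S2 line; fluorescence appears when Hh-driven phosphorylation opens an inhibitory loop. Per-cell signal, read by flow cytometry, was scaled to Hh-stimulated untreated cells. Hits were consistent fluorescence-shifting groups of inhibitors sharing pathway targets, not single compounds.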

Test system: Drosophila S2 cl14 SmoIP sensor cells
Assay: normalized SmoIP GFP fluorescence (untreated unstimulated = 0%, untreated Hh-stimulated = 100%); higher = more Smo activation sensor fluorescence
Conditions: stimulation: mock conditioned medium (-Hh); compound concentration: 15 uM; 24 h

Structure (SMILES) | normalized SmoIP GFP fluorescence
C[C@H](N[C@@H](CCc1ccccc1)C(=O)O)C(=O)N1CCC[C@H]1C(=O)O [Enalaprilat] | 10.2%
NC(=O)c1cccc(-c2cccc(OC(=O)NC3CCCCC3)c2)c1 | 7.01%
C[C@@H]1CCN(C(=O)CC#N)C[C@@H]1N(C)c1ncnc2[nH]ccc12 | 0.815%
CC[C@H](C)C(=O)O[C@@H]1C[C@@H](C)C=C2C=C[C@H](C)[C@@H](CC[C@@H]3C[C@@H](O)CC(=O)O3)[C@H]21 [lovastatin-mevacor] | 13%
COc1cc2ncnc(Nc3ccc(F)c(Cl)c3)c2cc1OCCCN1CCOCC1 [Gefitinib] | 86.4%
CCS(=O)(=O)N1CC(CC#N)(n2cc(-c3ncnc4[nH]ccc34)cn2)C1 | 7.35%
CCc1nc(N)nc(N)c1-c1ccc(Cl)cc1 [Pyrimethamine] | 18.9%
CC(C)(F)C[C@H](N[C@@H](c1ccc(-c2ccc(S(C)(=O)=O)cc2)cc1)C(F)(F)F)C(=O)NC1(C#N)CC1 [Odanacatib-(MK0822)] | 18.3%
C=CC[N+]1([C@H]2C[C@H]3[C@@H]4CC[C@H]5C[C@H](O)[C@@H](N6CCOCC6)C[C@]5(C)[C@H]4CC[C@]3(C)[C@H]2OC(C)=O)CCCC1 [Rocuronium-bromide] | 4.26%
O=P(O)(O)C(O)(Cn1ccnc1)P(=O)(O)O [Zoledronic-Acid] | 4.8%
CN1[C@@H]2CC[C@H]1C[C@@H](OC(c1ccccc1)c1ccccc1)C2 [benztropine-mesylate] | 18.4%
O=c1oc2cc(O)ccc2s1 [tioxolone] | -6.97%
CC(COc1ccccc1)N(CCCl)Cc1ccccc1 (centres undefined) [Phenoxybenzamine-hydrochloride] | 2.95%
Nc1nc(N)c2nc(-c3cccc(O)c3)c(-c3cccc(O)c3)nc2n1 | -2.64%
N[C@@H](CC(=O)N1CCn2c(nnc2C(F)(F)F)C1)Cc1cc(F)c(F)cc1F [Sitagliptin] | 1.21%
CCOC(=O)c1ccc(N2NC(=O)C(=Cc3ccc([N+](=O)[O-])o3)C2=O)cc1 | 87.6%
Cn1c(=O)c2[nH]cnc2n(C)c1=O [Aminophylline(Truphylline)] | -5.22%
CC[C@H](Nc1ncnc2[nH]cnc12)c1nc2cccc(F)c2c(=O)n1-c1ccccc1 | -14.3%
CCCOc1ccc(C(=O)OCCN(CC)CC)cc1N [proparacaine-hcl] | 1.44%
COc1cc2ncnc(Oc3cccc(NC(=O)Nc4cc(C(C)(C)C(F)(F)F)on4)c3)c2cc1OC | -3.45%

Some of the entries so far, field by field.
CC[C@H](C)C(=O)O[C@@H]1C[C@@H](C)C=C2C=C[C@H](C)[C@@H](CC[C@@H]3C[C@@H](O)CC(=O)O3)[C@H]21 [lovastatin-mevacor]
  normalized SmoIP GFP fluorescence: 13%
O=P(O)(O)C(O)(Cn1ccnc1)P(=O)(O)O [Zoledronic-Acid]
  normalized SmoIP GFP fluorescence: 4.8%
CN1[C@@H]2CC[C@H]1C[C@@H](OC(c1ccccc1)c1ccccc1)C2 [benztropine-mesylate]
  normalized SmoIP GFP fluorescence: 18.4%

The results go on:

Structure (SMILES) | normalized SmoIP GFP fluorescence
CC(=O)NS(=O)(=O)c1ccc(N)cc1 [sulfacetamide-sodium] | -4.35%
CC1CCN(CC[C@H]2CCCN2S(=O)(=O)c2cccc(O)c2)CC1 | -2.2%
COc1cc(F)c(C(C)C)cc1-c1ccc(C(F)(F)F)cc1CN1C(=O)O[C@H](c2cc(C(F)(F)F)cc(C(F)(F)F)c2)[C@@H]1C [anacetrapib-mk-0859] | -16.8%
CC[C@@H](C)Nc1cc(C(=O)N[C@H]2C[C@H]3CC[C@@H](C2)N3c2ccc(C(=O)C3CC3)cn2)c(C)cc1C(N)=O | 40.6%
c1cn2cc(-c3ccc4cn[nH]c4c3)nc(Nc3ccc(N4CCOCC4)cc3)c2n1 | 22.8%
O=C(O)c1ccc(C=C2SC(=S)N(c3cccc(C(F)(F)F)c3)C2=O)cc1 [cftrinh-172] | 37.7%
NC(=O)N1CCC(CC(=O)N2CCC(C3c4ncc(Br)cc4CCc4cc(Cl)cc(Br)c43)CC2)CC1 (centres undefined) | 77.4%
Cc1nnc(C(=O)NC(C)(C)c2nc(C(=O)NCc3ccc(F)cc3)c(O)c(=O)n2C)o1 [Raltegravir-(MK-0518)] | 2.77%
CC1(C)CCC(c2ccc(Cl)cc2)=C(CN2CCN(c3ccc(C(=O)NS(=O)(=O)c4ccc(N[C@H](CCN5CCOCC5)CSc5ccccc5)c(S(=O)(=O)C(F)(F)F)c4)cc3)CC2)C1 | 1.89%
Cc1cnc(-c2cnc(NCCNc3ccc(C#N)cn3)nc2-c2ccc(Cl)cc2Cl)[nH]1 | 15.7%
COc1cc(N2CCC(N)CC2)ccc1Nc1ncc(Cl)c(-c2c[nH]c3ccccc23)n1 | 72.6%
CCCc1nn(C)c2c(=O)[nH]c(-c3cc(S(=O)(=O)N4CCN(C)CC4)ccc3OCC)nc12 [Sildenafil-citrate] | 13.8%
CNCc1ccc(-c2[nH]c3cc(F)cc4c3c2CCNC4=O)cc1 | 75.1%
CC1(C)CC(=O)c2c(C(F)(F)F)nn(-c3ccc(C(N)=O)c(N[C@H]4CC[C@H](OC(=O)CN)CC4)c3)c2C1 | 59.4%
CCO[C@@H]1OC(=O)C[C@@H]1NC(=O)[C@@H]1CCCN1C(=O)[C@@H](NC(=O)c1ccc(N)c(Cl)c1)C(C)(C)C | -14.5%
Oc1ccc(-c2nc(-c3ccc(F)cc3)c(-c3ccncc3)[nH]2)cc1 | 38.5%
Nc1ccc2ncnc(NCCc3ccc(Oc4ccccc4)cc3)c2c1 | 46.9%
Cc1nn(-c2ccccc2)c(C)c1C=NN1CCN(Cc2ccccc2)CC1 [sant-1] | 4.91%
Cc1ccc(-c2cc(C(F)(F)F)nn2-c2ccc(S(N)(=O)=O)cc2)cc1 [Celecoxib] | 7.06%
